Measurements published in US9642847B2, “Combinational compositions and methods for treatment of cancer” (ArQule, Inc., priority 2009, dated 2017).
Like-named read-outs stand apart in the source and are kept apart here.

Test system: HT29 colon cancer cells
Experiment: 72 h MTT proliferation assay, equipotent fixed-ratio combination, isobologram analysis (Calcusyn)
Format: cell-based
Details: Homo sapiens
From the text: Erlotinib is an inhibitor of the epidermal growth factor receptor and is indicated for the treatment of patients with locally advanced or metastatic non-small cell lung cancer after failure of at least one prior chemotherapy regimen, and is indicated for the first-line treatment of patients with locally advanced, unresectable or metastatic pancreatic cancer.
Gefitinib is an inhibitor of the EGF receptor.

IC50 (HT-29, 72 h, HT29, 72 h, single agents and fixed-ratio combination, read-out: IC50): 7.37 µM
IC50 (HT-29, HT29 cells, predicted value used to set the ratio, read-out: IC50, predicted): ~10 µM
Structure (SMILES): Cc1ccc(NC(=O)c2ccc(CN3CCN(C)CC3)cc2)cc1Nc1nccc(-c2cccnc2)n1 [Imatinib, imatinib]
